The target in this assay is FRα, tethered secreted form, overexpressed on HEK293 cells (human) (UniProt P15328). Put plainly: Retrogenix cell microarray, confirmation/specificity screens on fixed and live HEK293 cells.

The chains behind the UniProt entries cited, without tags or fusion partners. Residues count along the entry.
UniProt P15328, residues 25-234: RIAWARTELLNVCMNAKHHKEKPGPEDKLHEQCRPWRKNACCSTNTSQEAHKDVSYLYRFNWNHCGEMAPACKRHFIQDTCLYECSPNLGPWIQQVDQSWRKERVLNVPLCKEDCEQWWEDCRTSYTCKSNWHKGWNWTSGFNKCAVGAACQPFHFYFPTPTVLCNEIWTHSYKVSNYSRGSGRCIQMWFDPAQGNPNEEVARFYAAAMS

No constants are given. Whether binding was seen depends on the method and setting. Some results given as binding are weak or reduced against the parent protein; the word gives no strength.

This is an account of results in US20240058447A1 (INSTIL BIO UK, published 2024).

B1: MOV19 monoclonal antibody (antibody, V domains shown)
VH: QVQLQQSGAELVKPGASVKISCKASGYSFTGYFMNWVKQSHGKSLEWIGRIHPYDGDTFYNQNFKDKATLTVDKSSNTAHMELLSLTSEDFAVYYCTRYDGSRAMDYWGQGTTVTVSS
VL: DIELTQSPASLAVSLGQRAIISCKASQSVSFAGTSLMHWYHQKPGQQPKLLIYRASNLEAGVPTRFSGSGSKTDFTLNIHPVEEEDAATYYCQQSREYPYTFGGGTKLEIK
notes: also called MOV19 antibody; MOV19 anti-FRα antibody
For the molecule B1, the binding entry is “binds”.
